Laboratory results from patent publication US20110038790A1.
No constants are given. Whether binding was seen depends on the method and setting. Some results given as binding are weak or reduced against the parent protein; the word gives no strength.

T1: murine AA amyloid (AA fibrils, amyloid enhancing factor extract or tissue deposits) (mouse) (UniProt P05367)
T1 sequence (looked up): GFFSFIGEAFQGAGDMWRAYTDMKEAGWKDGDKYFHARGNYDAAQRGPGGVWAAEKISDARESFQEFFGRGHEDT

T2: human AA amyloid (renal AA amyloid extract or tissue deposits) (human) (UniProt P0DJI8)
T2 sequence (looked up): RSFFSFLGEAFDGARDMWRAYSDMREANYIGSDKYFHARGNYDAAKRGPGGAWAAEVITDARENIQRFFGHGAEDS


Assays:
[1] = target: T1, murine AA amyloid (AA fibrils, amyloid enhancing factor extract or tissue deposits) (mouse); assay: ELISA, serial dilution of hybridoma culture supernatant on murine AA AEF (murine-derived AA fibrils)
[2] = target: ALλ amyloid deposits in a patient's thyroid gland composed of λ2 fragments (human); assay: immunohistochemistry, 3 µg/mL mAb on thyroid ALλ amyloid sections
[3] = target: T1, murine AA amyloid (AA fibrils, amyloid enhancing factor extract or tissue deposits) (mouse); assay: ELISA, hybridoma culture supernatant on murine AA (AEF); not corrected for mAb concentration
[4] = target: T2, human AA amyloid (renal AA amyloid extract or tissue deposits) (human); assay: immunohistochemistry on human AA-containing kidney, adrenal, ovary and liver
[5] = target: T1, murine AA amyloid (AA fibrils, amyloid enhancing factor extract or tissue deposits) (mouse); assay: ELISA, purified mAb titrated on plate-bound murine AA amyloid extract (AEF)
[6] = target: T2, human AA amyloid (renal AA amyloid extract or tissue deposits) (human); assay: ELISA, purified mAb titrated on plate-bound human renal AA amyloid extract
[7] = target: T1, murine AA amyloid (AA fibrils, amyloid enhancing factor extract or tissue deposits) (mouse); assay: told in words with the ELISA results
[8] = target: T2, human AA amyloid (renal AA amyloid extract or tissue deposits) (human); assay: told in words with the ELISA results
[9] = target: T1, murine AA amyloid (AA fibrils, amyloid enhancing factor extract or tissue deposits) (mouse); assay: comparison told in words, method for murine AA fibrils not given here
[10] = target: T1, murine AA amyloid (AA fibrils, amyloid enhancing factor extract or tissue deposits) (mouse); assay: immunohistochemistry, hybridoma supernatants on TRIAD mouse liver and spleen
[11] = target: T1, murine AA amyloid (AA fibrils, amyloid enhancing factor extract or tissue deposits) (mouse); assay: ELISA, told in words
[12] = target: T2, human AA amyloid (renal AA amyloid extract or tissue deposits) (human); assay: ELISA, told in words
[13] = target: T1, murine AA amyloid (AA fibrils, amyloid enhancing factor extract or tissue deposits) (mouse); assay: SPECT/CT imaging in mice with AA amyloidosis
[14] = target: T1, murine AA amyloid (AA fibrils, amyloid enhancing factor extract or tissue deposits) (mouse); assay: SPECT imaging in TRIAD mice
[15] = target: murine monoclonal antibody 7D8; assay: immunohistochemistry on human ovarian AA amyloid, peptide inhibition
[16] = target: murine monoclonal antibody 7D8; assay: BIAcore competition: peptide p41 in solution with mAb 7D8 (6.6 nM, legend); interaction watched: 7D8 with immobilized Vλ6 Wil fibrils
[17] = target: murine monoclonal antibody 7D8; assay: SPR competition: 20 µg/mL p41 left 7D8 binding to Vλ6 Wil fibrils identical to 7D8 alone
[18] = target: murine monoclonal antibody 7D8; assay: immunohistochemistry, preincubation of 7D8 supernatant with peptide before staining murine AA amyloid

Row | Binder | binding [1] | binding [2] | binding [3] | binding [4] | binding [5] | binding [6] | binding [7] | binding [8] | binding [9] | binding [10] | binding [11] | binding [12] | binding [13] | binding [14] | binding [15] | binding [16] | binding [17] | binding [18]
1 | murine monoclonal antibody 2A4 (antibody, V domains shown) VH: EVQLVESGGRLVQPKGSLKLSCAASGFTFNTYAMYWIRQAPGKGLEWVARIRSKSNNYAIYYADSVKDRFTIFRDDSQSMLYLQMNNLKTEDTAMYYCVRPYSDSFAYWGQGTLVTVSA VL: DVVMTQTPLSLPVSLGDQASISCRSSQSLVHSTGNTYLHWYLQKPGQSPKLLIYKVSNRFSGVPDRFSGSGSGTYFTLKISRVEAEDLGVYFCSQSTHVPFTFGGGTKLEIK | binds | binds | binds | binds | binds | binds | binds | binds | binds | binds | – | – | – | – | – | – | – | –
2 | murine monoclonal antibody 7D8 (antibody, mouse IgG2b, V domains shown) VH: EVQLVESGGRLVQPKGSLKLSCAASGFTFNTYAMYWIRQAPGKGLEWVARIRSKSNNYAIYYADSVKDRFTIFRDDSQSMLYLQMNNLKTEDTAMYYCVRPYSDSFAYWGQGTLVTVSA VL: DVVMTQTPLSLPVSLGDQASISCRSSLSLVHSTGNTYLHWYLQKPGQSPKLLIYKVSNRFSGVPDRFSGSGSGTYFTLKISRVEAEDLGVYFCSQSTHVPFTFGGGTKLEIK | binds | binds | binds | binds | binds | binds | binds | binds | binds | binds | binds | binds | binds | binds | – | – | – | –
3 | murine monoclonal antibody 8G9 (antibody, mouse IgG2b, V domains shown) VH: EVQLVESGGRLVQPKGSLKLSCAASGFTFNTYAMYWIRQAPGKGLEWVARIRSKSNNYAIYYADSVKDRFTIFRDDSQSMLYLQMNNLKTEDTAMYYCVRPYSDSFAYWGQGTLVTVSA VL: DVVMTQTPLSLPVSLGDQASISCRSSQSLVHSTGNTYLHWYLQKPGQSPKLLIYKVSNRFSGVPDRFSGSGSGTYFTLKISRVEAEDLGVYFCSQSTHVPFTFGGGTKLEIK | binds | binds | binds | binds | binds | binds | binds | binds | binds | binds | – | – | – | – | – | – | – | –
4 | GHEDTIADQE [peptide 41, …] | – | – | – | – | – | – | – | – | – | – | – | – | – | – | no binding | no binding (tested: 20 µg/mL) | no binding (tested: 20 µg/mL) | no binding (tested: 50 µg/mL)
